According to US20260053833A1, “COMPOSITIONS AND METHODS FOR TREATING CARDIOMYOPATHIES” (THE BOARD OF REGENTS OF THE UNIVERSITY OF TEXAS SYSTEM, priority 2022, published 2026):

Target: ΔK210 troponin complex (Homo sapiens, UniProt P19429+P45379, C80A/C97A/DEL220-220/T31M)
Experiment: Crystal structure of ΔK210 bound with Ca^2+ in the presence of bisphosphonates
Conditions: same crystallization condition as ΔK210 with risedronate

ligand density in crystal structure: no ligand density was observed
SMILES: NCCCC(O)(P(=O)(O)O)P(=O)(O)O [elandronate]
